In publication PMC7081327:
No constants are given. Whether binding was seen depends on the method and setting. In cells and extracts the contact can be indirect. Some results given as binding are weak or reduced against the parent protein; the word gives no strength.

Chains of the proteins cited; added tags and fusions are not shown.
UniProt O43474: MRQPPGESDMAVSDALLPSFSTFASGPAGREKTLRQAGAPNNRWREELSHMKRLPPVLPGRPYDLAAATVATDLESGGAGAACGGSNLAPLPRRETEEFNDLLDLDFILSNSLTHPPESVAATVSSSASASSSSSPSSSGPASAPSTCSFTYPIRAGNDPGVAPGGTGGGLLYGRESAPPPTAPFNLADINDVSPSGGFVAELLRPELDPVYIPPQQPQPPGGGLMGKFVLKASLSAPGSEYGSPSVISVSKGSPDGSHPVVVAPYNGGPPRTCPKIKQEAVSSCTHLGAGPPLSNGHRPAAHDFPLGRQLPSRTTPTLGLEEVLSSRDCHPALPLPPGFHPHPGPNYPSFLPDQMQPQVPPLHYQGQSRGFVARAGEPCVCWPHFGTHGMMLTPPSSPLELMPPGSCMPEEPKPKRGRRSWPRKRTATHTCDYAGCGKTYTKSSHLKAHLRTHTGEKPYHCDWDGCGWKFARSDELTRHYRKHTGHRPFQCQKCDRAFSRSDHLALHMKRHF
UniProt Q9GZV5: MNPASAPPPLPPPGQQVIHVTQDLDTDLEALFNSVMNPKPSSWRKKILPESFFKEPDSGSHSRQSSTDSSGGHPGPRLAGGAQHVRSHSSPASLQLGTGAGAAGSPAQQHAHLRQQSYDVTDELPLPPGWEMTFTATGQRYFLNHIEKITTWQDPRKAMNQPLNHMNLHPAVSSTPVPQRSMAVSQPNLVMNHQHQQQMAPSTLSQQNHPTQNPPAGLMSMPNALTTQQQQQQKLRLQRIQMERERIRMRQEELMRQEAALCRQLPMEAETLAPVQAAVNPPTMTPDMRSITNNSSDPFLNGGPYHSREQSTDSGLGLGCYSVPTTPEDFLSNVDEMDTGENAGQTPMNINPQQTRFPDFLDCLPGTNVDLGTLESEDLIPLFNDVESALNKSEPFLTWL
UniProt P46937: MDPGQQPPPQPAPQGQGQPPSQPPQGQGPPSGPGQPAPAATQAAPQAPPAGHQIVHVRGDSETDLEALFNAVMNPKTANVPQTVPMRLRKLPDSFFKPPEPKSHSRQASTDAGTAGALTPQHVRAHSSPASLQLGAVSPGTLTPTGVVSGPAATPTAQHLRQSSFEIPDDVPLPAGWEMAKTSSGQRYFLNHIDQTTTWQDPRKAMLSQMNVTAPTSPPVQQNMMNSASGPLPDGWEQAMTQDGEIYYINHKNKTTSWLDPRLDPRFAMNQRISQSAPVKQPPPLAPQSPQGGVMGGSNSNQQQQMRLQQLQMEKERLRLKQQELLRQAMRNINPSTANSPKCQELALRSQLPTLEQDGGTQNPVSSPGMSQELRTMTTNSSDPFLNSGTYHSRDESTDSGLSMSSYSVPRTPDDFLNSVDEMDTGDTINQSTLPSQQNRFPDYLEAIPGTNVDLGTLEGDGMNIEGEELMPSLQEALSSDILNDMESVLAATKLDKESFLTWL

Biological target: KLF4 in N/TERT2G keratinocytes (human (endogenous in N/TERT2G)) (UniProt O43474)
Test: co-IP; N/TERT2G cells transduced with TEADi or GFP; the interaction is increased by TEADi; precipitating antibody not told in the legend; western blot (Fig. 4a)

| binding | Substance |
| --- | --- |
| binds | TAZ (WWTR1) in N/TERT2G keratinocytes (from UniProt Q9GZV5 1-400) |
| binds | YAP1 in N/TERT2G keratinocytes (from UniProt P46937 1-504) |
